# In patent US20210017607A1, “Methods of Predicting Responsiveness to Cancer Therapies” (The University of Chicago, priority 2019, published 2021):
# For at least one compound, name, drawing or mass did not settle the structure.
# Assay: IC90 concentrations stated for in vitro/ex vivo drug treatments
# Details: FIG. 50, Myc-CAP-PTEN^−/− tumor suspensions; read-out: IC90 concentration
smiles,measurement,value
CC[C@H](Nc1ncnc2[nH]cnc12)c1nc2cccc(F)c2c(=O)n1-c1ccccc1 [CAL101],IC90,500 nM
